log2 fold change data for 36 targets are collected here from the supplement of paper PMC12819154, “High-throughput peptide-centric local stability assay extends protein–ligand identification to membrane proteins, tissues and bacteria” (Nature Structural & Molecular Biology, 2025).

The chains behind the UniProt entries cited, without tags or fusion partners. Where a name states a change or a piece, a line headed by the entry shows the natural chain unless it says otherwise.
UniProt P30049: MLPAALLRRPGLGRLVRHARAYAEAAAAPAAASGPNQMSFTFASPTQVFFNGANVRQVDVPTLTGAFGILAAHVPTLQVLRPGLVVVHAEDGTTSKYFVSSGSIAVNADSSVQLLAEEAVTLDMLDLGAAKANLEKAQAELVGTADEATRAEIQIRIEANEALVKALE
UniProt P31749: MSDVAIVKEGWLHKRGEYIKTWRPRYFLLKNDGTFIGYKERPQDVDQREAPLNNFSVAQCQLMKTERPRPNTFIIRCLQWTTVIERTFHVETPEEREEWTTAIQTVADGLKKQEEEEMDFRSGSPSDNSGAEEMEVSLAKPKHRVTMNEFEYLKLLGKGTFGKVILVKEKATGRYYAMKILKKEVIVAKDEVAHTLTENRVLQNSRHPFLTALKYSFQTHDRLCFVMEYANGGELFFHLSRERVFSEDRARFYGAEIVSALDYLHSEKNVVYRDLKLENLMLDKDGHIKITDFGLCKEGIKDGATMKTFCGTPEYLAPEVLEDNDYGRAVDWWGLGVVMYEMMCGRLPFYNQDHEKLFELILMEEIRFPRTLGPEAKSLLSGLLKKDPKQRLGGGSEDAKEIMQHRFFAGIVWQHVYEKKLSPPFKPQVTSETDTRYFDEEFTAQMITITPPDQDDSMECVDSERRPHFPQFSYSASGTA
UniProt P34949: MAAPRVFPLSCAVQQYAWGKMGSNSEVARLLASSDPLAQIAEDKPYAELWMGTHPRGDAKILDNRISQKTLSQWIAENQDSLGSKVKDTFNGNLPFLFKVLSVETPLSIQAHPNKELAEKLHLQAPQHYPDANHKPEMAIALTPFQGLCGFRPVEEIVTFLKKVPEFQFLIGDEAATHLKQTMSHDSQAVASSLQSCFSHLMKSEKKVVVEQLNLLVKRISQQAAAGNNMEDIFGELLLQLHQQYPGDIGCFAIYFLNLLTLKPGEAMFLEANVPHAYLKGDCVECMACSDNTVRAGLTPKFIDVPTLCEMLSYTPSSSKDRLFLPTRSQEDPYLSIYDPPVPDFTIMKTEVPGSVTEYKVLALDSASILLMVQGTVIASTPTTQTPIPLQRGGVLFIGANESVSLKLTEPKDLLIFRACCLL
UniProt P35222, whole entry: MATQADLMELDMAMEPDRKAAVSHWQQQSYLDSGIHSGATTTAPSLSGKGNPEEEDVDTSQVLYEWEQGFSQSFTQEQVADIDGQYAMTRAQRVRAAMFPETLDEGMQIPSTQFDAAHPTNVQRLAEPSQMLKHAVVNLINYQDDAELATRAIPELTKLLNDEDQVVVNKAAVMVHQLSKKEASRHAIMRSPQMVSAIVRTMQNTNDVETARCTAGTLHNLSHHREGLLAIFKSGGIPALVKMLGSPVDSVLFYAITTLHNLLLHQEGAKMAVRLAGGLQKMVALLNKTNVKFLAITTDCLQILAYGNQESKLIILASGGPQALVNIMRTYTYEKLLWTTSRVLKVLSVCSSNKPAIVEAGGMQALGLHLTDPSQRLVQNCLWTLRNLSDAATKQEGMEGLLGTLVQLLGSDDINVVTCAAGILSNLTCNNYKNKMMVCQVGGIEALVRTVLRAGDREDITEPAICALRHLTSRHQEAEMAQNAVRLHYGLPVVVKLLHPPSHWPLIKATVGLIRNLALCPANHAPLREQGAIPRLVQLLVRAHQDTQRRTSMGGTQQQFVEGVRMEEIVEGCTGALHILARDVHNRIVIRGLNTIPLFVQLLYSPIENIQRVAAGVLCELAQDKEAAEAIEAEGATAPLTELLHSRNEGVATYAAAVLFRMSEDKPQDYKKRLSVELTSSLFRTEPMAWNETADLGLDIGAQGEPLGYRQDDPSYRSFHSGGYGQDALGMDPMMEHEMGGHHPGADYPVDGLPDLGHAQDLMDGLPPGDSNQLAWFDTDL
UniProt P35580, whole entry: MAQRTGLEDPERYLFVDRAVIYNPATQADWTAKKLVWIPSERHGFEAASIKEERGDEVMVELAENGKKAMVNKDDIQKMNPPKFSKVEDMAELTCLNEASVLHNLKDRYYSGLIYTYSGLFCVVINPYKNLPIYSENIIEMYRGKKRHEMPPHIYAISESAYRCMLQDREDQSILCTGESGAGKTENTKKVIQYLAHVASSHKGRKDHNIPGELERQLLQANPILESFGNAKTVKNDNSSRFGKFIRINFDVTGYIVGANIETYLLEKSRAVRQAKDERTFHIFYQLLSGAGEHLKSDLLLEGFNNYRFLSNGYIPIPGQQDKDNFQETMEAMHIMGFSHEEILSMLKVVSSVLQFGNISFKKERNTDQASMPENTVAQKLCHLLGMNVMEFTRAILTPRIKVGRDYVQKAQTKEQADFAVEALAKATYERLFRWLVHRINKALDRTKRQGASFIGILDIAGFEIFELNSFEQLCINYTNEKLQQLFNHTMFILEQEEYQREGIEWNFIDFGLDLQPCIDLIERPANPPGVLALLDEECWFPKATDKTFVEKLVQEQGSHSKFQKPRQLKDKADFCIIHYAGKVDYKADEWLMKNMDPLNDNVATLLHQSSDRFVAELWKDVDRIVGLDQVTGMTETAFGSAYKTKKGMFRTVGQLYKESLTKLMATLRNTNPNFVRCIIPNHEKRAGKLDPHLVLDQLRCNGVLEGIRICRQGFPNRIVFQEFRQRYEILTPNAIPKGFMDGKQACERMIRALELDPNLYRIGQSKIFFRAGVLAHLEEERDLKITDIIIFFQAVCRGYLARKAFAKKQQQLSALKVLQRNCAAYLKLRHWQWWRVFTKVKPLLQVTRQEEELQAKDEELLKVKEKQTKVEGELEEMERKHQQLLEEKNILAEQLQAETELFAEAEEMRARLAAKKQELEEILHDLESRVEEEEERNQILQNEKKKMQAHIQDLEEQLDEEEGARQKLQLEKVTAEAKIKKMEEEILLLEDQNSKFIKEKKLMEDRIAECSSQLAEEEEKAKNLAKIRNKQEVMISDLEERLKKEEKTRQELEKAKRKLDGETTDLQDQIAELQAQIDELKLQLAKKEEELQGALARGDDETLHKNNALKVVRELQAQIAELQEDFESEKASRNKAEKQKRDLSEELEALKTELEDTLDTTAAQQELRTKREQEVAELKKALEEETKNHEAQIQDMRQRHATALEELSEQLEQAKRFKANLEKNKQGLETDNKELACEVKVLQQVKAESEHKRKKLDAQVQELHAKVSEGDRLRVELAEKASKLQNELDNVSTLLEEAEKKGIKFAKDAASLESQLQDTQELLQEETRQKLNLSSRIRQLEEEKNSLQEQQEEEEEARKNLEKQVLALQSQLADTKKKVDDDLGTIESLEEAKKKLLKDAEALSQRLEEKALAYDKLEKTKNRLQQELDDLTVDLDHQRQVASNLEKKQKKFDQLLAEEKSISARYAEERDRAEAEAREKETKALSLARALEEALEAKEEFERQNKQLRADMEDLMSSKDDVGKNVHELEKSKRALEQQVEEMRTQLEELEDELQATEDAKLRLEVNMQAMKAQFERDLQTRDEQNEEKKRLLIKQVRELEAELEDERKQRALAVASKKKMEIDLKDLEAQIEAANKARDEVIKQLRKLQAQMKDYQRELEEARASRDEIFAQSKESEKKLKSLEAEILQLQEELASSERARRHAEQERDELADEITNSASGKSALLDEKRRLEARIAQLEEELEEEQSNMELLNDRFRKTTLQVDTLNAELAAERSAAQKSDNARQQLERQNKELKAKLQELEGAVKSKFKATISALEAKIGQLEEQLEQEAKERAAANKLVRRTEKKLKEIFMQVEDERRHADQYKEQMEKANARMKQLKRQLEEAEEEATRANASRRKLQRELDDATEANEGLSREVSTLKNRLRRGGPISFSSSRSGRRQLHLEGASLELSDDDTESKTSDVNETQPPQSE
UniProt P30279, whole entry: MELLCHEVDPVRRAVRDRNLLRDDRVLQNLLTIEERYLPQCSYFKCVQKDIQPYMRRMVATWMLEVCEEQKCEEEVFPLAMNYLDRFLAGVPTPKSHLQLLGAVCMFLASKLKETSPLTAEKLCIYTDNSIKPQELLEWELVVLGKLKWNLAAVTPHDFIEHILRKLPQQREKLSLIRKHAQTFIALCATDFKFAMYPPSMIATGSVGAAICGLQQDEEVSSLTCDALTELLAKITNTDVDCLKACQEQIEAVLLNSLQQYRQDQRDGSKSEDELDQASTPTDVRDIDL
UniProt P40222: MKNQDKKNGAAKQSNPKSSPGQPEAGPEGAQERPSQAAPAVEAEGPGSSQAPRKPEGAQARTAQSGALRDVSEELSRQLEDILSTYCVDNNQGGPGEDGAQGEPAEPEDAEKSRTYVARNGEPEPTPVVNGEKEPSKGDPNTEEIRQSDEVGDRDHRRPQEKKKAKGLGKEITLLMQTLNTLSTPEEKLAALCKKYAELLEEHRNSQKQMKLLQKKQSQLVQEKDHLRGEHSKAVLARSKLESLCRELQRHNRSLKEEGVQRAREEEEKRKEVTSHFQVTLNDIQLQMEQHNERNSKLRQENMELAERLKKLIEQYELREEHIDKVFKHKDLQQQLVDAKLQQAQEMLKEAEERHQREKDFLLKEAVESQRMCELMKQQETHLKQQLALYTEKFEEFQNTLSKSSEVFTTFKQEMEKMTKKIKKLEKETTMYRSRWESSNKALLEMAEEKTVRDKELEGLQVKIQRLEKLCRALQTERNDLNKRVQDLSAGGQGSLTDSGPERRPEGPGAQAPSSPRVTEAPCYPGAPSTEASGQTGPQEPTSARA
UniProt P41212: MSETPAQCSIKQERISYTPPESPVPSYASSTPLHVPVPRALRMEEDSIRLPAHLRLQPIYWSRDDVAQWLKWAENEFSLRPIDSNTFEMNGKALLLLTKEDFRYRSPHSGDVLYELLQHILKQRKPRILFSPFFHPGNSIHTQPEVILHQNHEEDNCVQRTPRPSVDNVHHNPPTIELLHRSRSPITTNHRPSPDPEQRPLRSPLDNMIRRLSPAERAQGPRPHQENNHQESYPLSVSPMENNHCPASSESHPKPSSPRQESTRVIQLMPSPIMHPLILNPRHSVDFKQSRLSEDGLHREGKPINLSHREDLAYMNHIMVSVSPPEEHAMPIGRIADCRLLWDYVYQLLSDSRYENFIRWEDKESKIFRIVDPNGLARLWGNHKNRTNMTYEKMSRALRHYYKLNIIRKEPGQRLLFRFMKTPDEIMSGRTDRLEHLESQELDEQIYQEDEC
UniProt P35670: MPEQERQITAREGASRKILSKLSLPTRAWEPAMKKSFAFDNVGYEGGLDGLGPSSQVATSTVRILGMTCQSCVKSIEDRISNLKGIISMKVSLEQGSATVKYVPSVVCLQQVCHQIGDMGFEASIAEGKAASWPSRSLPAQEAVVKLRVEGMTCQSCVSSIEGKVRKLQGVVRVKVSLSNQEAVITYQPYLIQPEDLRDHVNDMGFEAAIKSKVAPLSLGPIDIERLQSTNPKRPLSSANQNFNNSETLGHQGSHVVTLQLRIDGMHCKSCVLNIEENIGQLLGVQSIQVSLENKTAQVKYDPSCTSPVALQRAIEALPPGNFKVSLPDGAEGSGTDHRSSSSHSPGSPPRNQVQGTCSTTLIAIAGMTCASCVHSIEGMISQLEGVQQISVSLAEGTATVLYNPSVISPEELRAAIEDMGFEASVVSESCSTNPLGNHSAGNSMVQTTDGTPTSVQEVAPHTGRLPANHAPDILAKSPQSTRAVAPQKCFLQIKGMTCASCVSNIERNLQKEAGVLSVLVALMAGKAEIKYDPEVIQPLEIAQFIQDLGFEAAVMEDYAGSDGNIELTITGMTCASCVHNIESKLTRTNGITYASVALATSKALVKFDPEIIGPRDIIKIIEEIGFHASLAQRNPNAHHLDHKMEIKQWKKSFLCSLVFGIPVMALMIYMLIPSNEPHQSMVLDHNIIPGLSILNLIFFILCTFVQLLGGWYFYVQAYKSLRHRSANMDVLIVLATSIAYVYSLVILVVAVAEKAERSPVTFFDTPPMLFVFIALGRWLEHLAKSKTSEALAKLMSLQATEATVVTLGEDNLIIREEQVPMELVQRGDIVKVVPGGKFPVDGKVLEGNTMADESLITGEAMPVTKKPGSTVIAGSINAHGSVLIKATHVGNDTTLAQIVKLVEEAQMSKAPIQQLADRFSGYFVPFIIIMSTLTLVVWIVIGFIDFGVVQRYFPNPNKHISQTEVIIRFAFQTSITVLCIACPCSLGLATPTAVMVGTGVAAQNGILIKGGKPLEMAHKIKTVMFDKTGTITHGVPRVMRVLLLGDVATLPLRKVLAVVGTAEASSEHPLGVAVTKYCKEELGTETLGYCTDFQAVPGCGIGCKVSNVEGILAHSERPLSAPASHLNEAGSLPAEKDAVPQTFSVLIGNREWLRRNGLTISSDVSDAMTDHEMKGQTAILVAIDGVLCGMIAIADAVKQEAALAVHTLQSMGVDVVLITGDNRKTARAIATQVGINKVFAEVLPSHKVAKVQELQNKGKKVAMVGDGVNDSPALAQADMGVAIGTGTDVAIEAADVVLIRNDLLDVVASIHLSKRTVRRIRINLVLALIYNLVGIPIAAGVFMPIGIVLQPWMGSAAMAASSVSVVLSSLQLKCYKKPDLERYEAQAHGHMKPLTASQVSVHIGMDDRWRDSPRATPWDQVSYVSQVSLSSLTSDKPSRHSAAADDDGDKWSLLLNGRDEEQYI

The other results are listed elsewhere or left out. Most values lie at the level of the controls, where differences are scatter.

Compound in the assay: Cc1nc(Nc2ncc(C(=O)Nc3c(C)cccc3Cl)s2)cc(N2CCN(CCO)CC2)n1 [dasatinib]
The experiment in a line: log2 fold change of tryptic peptide abundance, ligand vs vehicle (limited proteolysis) (log2 ratio); higher = more trypsin-susceptible (destabilized). Conditions: ligand concentration: 5 uM; sample: K562 cleared lysate.
In the case of “MKI67 (peptide sequence: DSLSKPEK, peptide start residue: 459) (UniProt P46013)”, the log2 fold change is -0.488.
For “UniProt P30049 (peptide sequence: IEANEALVK, peptide start residue: 157)”, the log2 fold change was -0.0427.
For the target “STIP1 (peptide sequence: KFMNPFNMPNLYQK, peptide start residue: 123) (UniProt P31948)”, the log2 fold change was 0.0999.
The same measure for “SNCA (peptide sequence: TKEGVVHGVATVAEK, peptide start residue: 44) (UniProt P37840)”: -0.216.
Then “HTT (peptide sequence: KAVTHAIPALQPIVHDLFVLR, peptide start residue: 1533) (UniProt P42858)”, with 0.53; and “ATP6V1A (peptide sequence: ITWSIIR, peptide start residue: 565) (UniProt P38606)”, with -0.182; and “AKT1 (peptide sequence: VTMNEFEYLK, peptide start residue: 145) (UniProt P31749)”, with 0.285.
Then “SRI (peptide sequence: ALTTMGFR, peptide start residue: 128) (UniProt P30626)”, with 0.0605; and “COIL (peptide sequence: NSSEKLPTELSK, peptide start residue: 270) (UniProt P38432)”, with -0.738; and “GRN (peptide sequence: WDAPLRDPALR, peptide start residue: 580) (UniProt P28799)”, with -0.00543.
Regarding “MPI (peptide sequence: KVVVEQLNLLVK, peptide start residue: 207) (UniProt P34949)”, the log2 fold change was found to be 0.292.
In the case of “CTNNB1 (peptide sequence: LAEPSQMLK, peptide start residue: 125) (UniProt P35222)”, the log2 fold change is -0.15.
As to “CMPK1 (peptide sequence: MKPLVVFVLGGPGAGK, peptide start residue: 1) (UniProt P30085)”, the log2 fold change worked out at 0.128.
In the case of “IMPA1 (peptide sequence: EKYPSHSFIGEESVAAGEK, peptide start residue: 60) (UniProt P29218)”, the log2 fold change turned out to be 0.139.
For the target “CETN2 (peptide sequence: MSPKPELTEEQKQEIR, peptide start residue: 19) (UniProt P41208)”, the log2 fold change was -0.112.
Turning to “RPS19 (peptide sequence: DLDRIAGQVAAANKK, peptide start residue: 130) (UniProt P39019)”, the log2 fold change was -1.03.
Take “TNFRSF8 (peptide sequence: SGASVTEPVAEER, peptide start residue: 449) (UniProt P28908)”: the log2 fold change amounted to 0.163.
The same measure for “MYH10 (peptide sequence: QLKDKADFCIIHYAGK, peptide start residue: 561) (UniProt P35580)”: 0.662.
Then “CCND2 (peptide sequence: YLPQCSYFK, peptide start residue: 37) (UniProt P30279)”, with 0.126; and “CPS1 (peptide sequence: GILIGIQQSFRPR, peptide start residue: 1361) (UniProt P31327)”, with -0.0568.
The same measure for “UniProt P36575 (peptide sequence: YGRDDLEVIGLTFR, peptide start residue: 59)”: 0.209; for “ALDH1B1 (peptide sequence: VAFTGSTEVGHLIQK, peptide start residue: 258) (UniProt P30837)”: 0.235.
As for “TXLNA (peptide sequence: AREEEEK, peptide start residue: 263) (UniProt P40222)”, the log2 fold change came to 0.214.
Take “UniProt P42285 (peptide sequence: NSATEAAKPAKPDEK, peptide start residue: 709)”: the log2 fold change is -0.449.
Consider “UniProt P40855 (peptide sequence: ELAEEEPHLVEQFQK, peptide start residue: 93)”, for which the log2 fold change was found to be 0.136.
As for “GTF2E2 (peptide sequence: QKQWLMTEALVNNPK, peptide start residue: 115) (UniProt P29084)”, the log2 fold change is -0.342.
Then “ATP6V1E1 (peptide sequence: ARDDLITDLLNEAK, peptide start residue: 86) (UniProt P36543)”, with -0.239.
Regarding “GNA11 (peptide sequence: MVDVGGQR, peptide start residue: 225) (UniProt P29992)”, the log2 fold change amounted to 0.176.
With “RBMX (peptide sequence: DYGHSSSR, peptide start residue: 245) (UniProt P38159)”, the log2 fold change stood at 0.106.
On to “CDC25B (peptide sequence: VILIFHCEFSSER, peptide start residue: 481) (UniProt P30305)”, for which the log2 fold change is 0.645.
Then “TRIM23 (peptide sequence: ISEAHSELAK, peptide start residue: 487) (UniProt P36406)”, with 0.107; and “ETV6 (peptide sequence: SPLDNMIR, peptide start residue: 203) (UniProt P41212)”, with -0.225.
Regarding “SOX11 (peptide sequence: APAAAGAK, peptide start residue: 172) (UniProt P35716)”, the log2 fold change is -0.0188.
On to “TPP2 (peptide sequence: WTDLFDNK, peptide start residue: 1173) (UniProt P29144)”, for which the log2 fold change is -0.261.
The same measure for “ATP7B (peptide sequence: ILGMTCQSCVK, peptide start residue: 64) (UniProt P35670)”: 0.116.
Consider “HELZ (peptide sequence: FLEQGICR, peptide start residue: 187) (UniProt P42694)”, for which the log2 fold change was -0.448.
